# Reference: PubChem BioAssay AID504786 (Drosophila RNAi Screening Center, 2011)
# Test: 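Fly genes required for HIF-dependent transcription when hypoxia is mimicked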 (primary screen)
# Cells: Drosophila S2 cells with a stable HIF luciferase reporter
# Reagent: long dsRNA against Drosophila genes, about 0.2 µg dsRNA per well of a 384-well plate
# Timing: three days of knock-down, then 20 h of DFO before reading
# Challenge: desferrioxamine (DFO) at 100 µM, an iron chelator that mimics hypoxia, for 20 h
# Read-out: 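Firefly luciferase driven by the mouse ldh-a hypoxia-response element, measured after 20 h of 100 µM DFO; z-scores per plate, higher means more signal lost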
# Direction: z-score: higher = stronger loss of HIF reporter signal
# The deposit covers about 21,000 reagents; shown is an unselected part of those that have a named target and a result. 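Primary screen; positive scores mean lost reporter signal, so the sign may be inverted from the usual convention.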 A plus sign joins genes that one reagent is predicted to hit.
target,amplicon,"z-score, replicate 1","z-score, replicate 2","z-score, replicate 3","z-score, replicate 4"
Coq7 + shf,DRSC18448,-0.3,-0.6,,
CG17544,DRSC02624,-0.3,-0.6,,
Not11,DRSC04204,-0.2,-0.1,,
CG15262,DRSC01975,-0.2,-0.3,,
CG33922,DRSC00050,-0.2,0.3,,
CG13318,DRSC14581,0,-0.9,,
CG33301,DRSC02778,-0.1,-0.3,,
pnr,DRSC17027,-0.3,-0.6,,
CG31823,DRSC01887,-0.1,0.2,,
CG10226,DRSC09715,-0.4,-0.4,,
HDAC1,DRSC08696,0.8,0.8,,
CG9416,DRSC07339,-0.3,-0.4,,
Qsox4,DRSC14224,-0.2,-0.3,,
CG42523,DRSC00251,0.1,0,,
CG3609,DRSC00620,-0.1,0,,
Mks1,DRSC19697,-0.2,0.2,,
slv,DRSC07685,-0.3,-0.4,,
CG9973 (retired record),DRSC08646,-0.1,-0.4,,
CG9951,DRSC11105,-0.3,-0.3,,
et,DRSC19582,-0.1,0,,
CG12885,DRSC14572,0,0.7,,
Sas-6,DRSC15061,-0.3,-0.3,,
Pif2,DRSC12525,-0.3,-0.4,,
CG8840,DRSC00713,-0.3,0,,
Tsp42Eo,DRSC06184,-0.2,0,,
CG12689,DRSC17879,-0.3,0,,
Dark,DRSC05922,-0.3,-0.3,,
ProtB,DRSC03373,-0.3,-0.3,,
Npc1a,DRSC03378,-0.3,-0.3,,
GstD7,DRSC16688,-0.1,-0.3,,
Klp64D,DRSC11204,-0.5,-0.8,,
vari,DRSC03202,-0.2,-0.1,,
Cyp28a5,DRSC03297,-0.2,-0.3,,
klhl10,DRSC05274,0,-0.2,,
klhl10,DRSC19171,-0.2,0.3,,
klhl10,DRSC20750,-0.3,-0.3,,
klhl10,DRSC20925,0.1,0,,
tHMG2,DRSC16182,0.4,-0.4,,
7B2,DRSC11991,-0.3,-0.2,,
CG42597,DRSC03681,0.6,0,,
fj,DRSC07619,-0.4,-0.2,,
CG7330,DRSC10813,-0.3,-0.5,,
CG7330,DRSC10814,-0.3,1.4,,
CG32388,DRSC08861,-0.3,-0.2,,
Capa,DRSC15058,-0.3,-0.3,,
wdb,DRSC14163,0,0.1,,
CG8303,DRSC07140,-0.3,-0.4,,
Spn42Dc,DRSC05010,-0.2,0.3,,
CG5292,DRSC15763,-0.4,2.4,,
CG7567,DRSC16258,-0.6,-0.4,,
CG14717,DRSC14940,-0.3,-0.5,,
CG34283,DRSC13313,-0.4,-0.5,,
Mink,DRSC14291,-0.2,-0.5,,
CG1074,DRSC12143,-0.4,-0.3,,
uif,DRSC00963,0.4,0.5,,
uif,DRSC03427,-0.4,-0.5,,
Cubn2,DRSC10561,-0.2,-0.1,,
CG34168,DRSC01938,2.6,-0.1,,
CG2258,DRSC18222,0.2,0,,
CG12239,DRSC17832,-0.5,-0.7,,
COX2 (retired record),DRSC21276,-0.3,-0.2,,
Gr58a,DRSC03910,0.4,-0.1,,
mol,DRSC01431,1.4,-0.6,1.4,0.8
mol,DRSC01912,-0.2,0.9,,
mol,DRSC02479,-0.3,-0.4,,
Polr1A,DRSC07535,-0.1,0.2,,
CG18269,DRSC02660,-0.4,-0.6,,
CG34451,DRSC09388,-0.8,0,,
CG34451,DRSC09389,0.9,0.2,,
AstC,DRSC02403,-0.3,0.1,,
CG34393,DRSC00419,-0.3,0,,
CG34393,DRSC00710,-0.3,-0.2,,
Tmx3,DRSC10471,0,-0.1,,
fau,DRSC12816,-0.3,-0.3,,
fau,DRSC12817,-0.2,0.1,,
fau,DRSC16943,-0.2,-0.5,,
fau,DRSC16944,-0.2,-0.4,,
fau,DRSC16945,-0.4,-1,-0.6,-0.1
thr,DRSC07706,-0.3,-0.2,,
CG1172,DRSC12182,-0.4,-0.6,,
Naxd,DRSC09722,-0.3,-0.3,,
pkm,DRSC19674,-0.3,-0.8,,
CG8891,DRSC03120,-0.4,-0.6,,

12 entries already listed, ordered by “z-score, replicate 2”, low to high.
target,amplicon,"z-score, replicate 1","z-score, replicate 2","z-score, replicate 3","z-score, replicate 4"
CG12239,DRSC17832,-0.5,-0.7,,
mol,DRSC01431,1.4,-0.6,1.4,0.8
Mink,DRSC14291,-0.2,-0.5,,
uif,DRSC03427,-0.4,-0.5,,
CG1074,DRSC12143,-0.4,-0.3,,
COX2 (retired record),DRSC21276,-0.3,-0.2,,
Cubn2,DRSC10561,-0.2,-0.1,,
CG34168,DRSC01938,2.6,-0.1,,
Gr58a,DRSC03910,0.4,-0.1,,
CG2258,DRSC18222,0.2,0,,
uif,DRSC00963,0.4,0.5,,
mol,DRSC01912,-0.2,0.9,,
